Data from paper PMC3355077.

Chains of the proteins cited; added tags and fusions are not shown. Lines headed by an entry give the natural chain unless they say otherwise; changes in a name come on top. A line that says so, or that is headed by a name, gives the form on record, which may keep a tag or linker.
Psip1/p52 (endogenous) (mouse (endogenous in NIH 3T3 and MEFs)) (Q99JF8, form named): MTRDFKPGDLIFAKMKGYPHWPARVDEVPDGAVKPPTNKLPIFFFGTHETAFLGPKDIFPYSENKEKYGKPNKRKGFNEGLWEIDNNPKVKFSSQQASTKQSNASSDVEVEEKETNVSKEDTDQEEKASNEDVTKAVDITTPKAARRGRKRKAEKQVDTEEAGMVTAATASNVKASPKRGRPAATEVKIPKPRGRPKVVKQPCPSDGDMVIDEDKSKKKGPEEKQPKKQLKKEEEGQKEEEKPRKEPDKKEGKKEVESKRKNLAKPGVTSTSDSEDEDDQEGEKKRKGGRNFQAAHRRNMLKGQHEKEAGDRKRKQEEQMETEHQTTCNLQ

Biological target: Psip1/p52 (endogenous) (mouse (endogenous in NIH 3T3 and MEFs)) (UniProt Q99JF8)
Assay: affinity purification with mass spectrometry; A300-847 IP from NIH 3T3 nuclear extract, washes with 200 mM KCl; gel bands analysed by MS/MS (Mascot)

Row | Binder | binding
1 | SF3B3 (protein, UniProt Q921M3 1-1217) MFLYNLTLQRATGISFAIHGNFSGTKQQEIVVSRGKILELLRPDPNTGKVHTLLTVEVFGVIRSLMAFRLTGGTKDYIVVGSDSGRIVILEYQPSKNMFEKIHQETFGKSGCRRIVPGQFLAVDPKGRAVMISAIEKQKLVYILNRDAAARLTISSPLEAHKANTLVYHVVGVDVGFENPMFACLEMDYEEADNDPTGEAAANTQQTLTFYELDLGLNHVVRKYSEPLEEHGNFLITVPGGSDGPSGVLICSENYITYKNFGDQPDIRCPIPRRRNDLDDPERGMIFVCSATHKTKSMFFFLAQTEQGDIFKITLETDEDMVTEIRLKYFDTVPVAAAMCVLKTGFLFVASEFGNHYLYQIAHLGDDDEEPEFSSAMPLEEGDTFFFQPRPLKNLVLVDELDSLSPILFCQIADLANEDTPQLYVACGRGPRSSLRVLRHGLEVSEMAVSELPGNPNAVWTVRRHIEDEFDAYIIVSFVNATLVLSIGETVEEVTDSGFLGTTPTLSCSLLGDDALVQVYPDGIRHIRADKRVNEWKTPGKKTIVKCAVNQRQVVIALTGGELVYFEMDPSGQLNEYTERKEMSADVVCMSLANVPPGEQRSRFLAVGLVDNTVRIISLDPSDCLQPLSMQALPAQPESLCIVEMGGTEKQDELGERGSIGFLYLNIGLQNGVLLRTVLDPVTGDLSDTRTRYLGSRPVKLFRVRMQGQEAVLAMSSRSWLSYSYQSRFHLTPLSYETLEFASGFASEQCPEGIVAISTNTLRILALEKLGAVFNQVAFPLQYTPRKFVIHPESNNLIIIETDHNAYTEATKAQRKQQMAEEMVEAAGEDERELAAEMAAAFLNENLPESIFGAPKAGNGQWASVIRVMNPIQGNTLDLVQLEQNEAAFSVAVCRFSNTGEDWYVLVGVAKDLILSPRSVAGGFVYTYKLVNNGEKLEFLHKTPVEEVPAAIAPFQGRVLIGVGKLLRVYDLGKKKLLRKCENKHIANYISGIQTIGHRVIVSDVQESFIWVRYKRNENQLIIFADDTYPRWVTTASLLDYDTVAGADKFGNICVVRLPPNTNDEVDEDPTGNKALWDRGLLNGASQKAEVIMNYHVGETVLSLQKTTLIPGGSESLVYTTLSGGIGILVPFTSHEDHDFFQHVEMHLRSEHPPLCGRDHLSFRSYYFPVKNVIDGDLCEQFNSMEPNKQKNVSEELDRTPPEVSKKLEDIRTRYAF | binds
2 | U5-102 kDa (protein, UniProt Q91YR7 1-941) MNKKKKPFLGMPAPLGYVPGLGRGATGFTTRSDIGPARDANDPVDDRHAPPGKRTVGDQMKKNQAADDDDEDLNDTNYDEFNGYAGSLFSSGPYEKDDEEADAIYAALDKRMDERRKERREQREKEEIEKYRMERPKIQQQFSDLKRKLAEVTEEEWLSIPEVGDARNKRQRNPRYEKLTPVPDSFFAKHLQTGENHTSVDPRQTQFGGLNTPYPGGLNTPYPGGMTPGLMTPGTGELDMRKIGQARNTLMDMRLSQVSDSVSGQTVVDPKGYLTDLNSMIPTHGGDINDIKKARLLLKSVRETNPHHPPAWIASARLEEVTGKLQVARNLIMKGTEMCPKSEDVWLEAARLQPGDTAKAVVAQAVRHLPQSVRIYIRAAELETDIRAKKRVLRKALEHVPNSVRLWKAAVELEEPEDARIMLSRAVECCPTSVELWLALARLETYENARKVLNKARENIPTDRHIWITAAKLEEANGNTQMVEKIIDRAITSLRANGVEINREQWIQDAEECDRAGSVATCQAVMRAVIGIGIEEEDRKHTWMEDADSCVAHNALECARAIYAYALQVFPSKKSVWLRAAYFEKNHGTRESLEALLQRAVAHCPKAEVLWLMGAKSKWLAGDVPAARSILALAFQANPNSEEIWLAAVKLESENNEYERARRLLAKARSSAPTARVFMKSVKLEWVLGNISAAQELCEEALRHYEDFPKLWMMKGQIEEQGELMEKAREAYNQGLKKCPHSTPLWLLLSRLEEKIGQLTRARAILEKSRLKNPKNPGLWLESVRLEYRAGLKNIANTLMAKALQECPNSGILWSEAVFLEARPQRKTKSVDALKKCEHDPHVLLAVAKLFWSERKITKAREWFHRTVKIDSDLGDAWAFFYKFELQHGTEEQQEEVRKRCENAEPRHGELWCAVSKDITNWQRKIGEILVLVAARIKNTF | binds
3 | Rbm 12b (protein, UniProt Q80YR9 1-836) MAVVIRLLGLPFIAGPVDIRHFFKGLTIPDGGVHIIGGKVGEAFIIFATDEDARRAISRSGGFIKDSSVELFLSSKVEMQKTIEMKRTARVGRGRPGSGASGVGNVYHFSDALKEEESYSGYGSSVNRDAGFHTNGTGLDLRPRKTRPLKAENPYLFLRGLPYLVNEDDVRVFFSGLCVDGVILLKHHDGRNNGDAIVKFASCVDASGGLKCHRSFMGSRFIEVMQGSEQQWIEFGGTATEGGDTPRMRSEEHSPSRRINGRHFRKRSHSKSPRARSRSPLGFYVHLKNLSLNTNKRDLRNLFRDTDLTNDQIKFVYKDERRTRYAFVMFKNQKDYNTALGLHKTVLQYRPVLIDPVSRKEMVRIIECYEKKRPESLEKERPGRVSQKYSQEGFSGSGQKLCIYIRNLPFDVTKGEVQKFFADFSLVEDDIYLLCDDKGVGLGEALVRFKSEEQAMKAERLNRQRFLGIEVLLRLISEEQMQEFGVKSSWLSNERTQACSRSHDGDDCSCLFDLKDPSSCSFGQSESLRYHPKDLRKMGHFKHPQGYFRQSDRRSPEDFRHSPEDYRHPWEEHTSHSREEDWRLPLEDWKWSQEDDFRQCHEKDRRQLRSPWEEDFRRPSQEHFRRSYQEHIRQPPEEHFRRSREEDFRHVADEDFRQASDEDFRTSQEDLRYPTDEDFRRVSVEDLREVPEKDLRLPKNFRSPGEEFWTPPDFRGQHPFGNFDHLQGGKFDFEKYKFGSFPDAKVTSDLNLNCVSDKIIPVKISNLPFKANASEILDFFHGYKVIPDSVSLQYNEQGLPIGEAIVAMTNYNEALAAVKDLSGRPVGPRKVKLSLL | binds
4 | Noc3 (protein, UniProt Q8VI84 1-807) MKARRNKKQVPSFRKLIKTSKVKLENKLKNKQFKQQSTIKKYRKEQRKLRQAVKDAVSKKPIPLEDPKSKRPVKRMEREEDEEEEALPLDMMDEDDLQLMKDLGQKASFLTRDLSSSEPVHIKKRKHESVIEKYEKVPRTLQTAPEKELIHLLPIKDKSGIIPQAREKPVTDVQQEEEAEEELEDEEEVIEDPRKELTIEEHVIERKKKLQDKKIQIAALASAILSDPESHIKKLKELRSMLMEQDPDVAVTVRKLVIISLMELFKDITPSYKIRPLTEAEKSTKIRKETQKLREFEEGLVSQYKFYLENLEQIVKDWKQRKLKKSNVVSLKAYKGLAEVAVKSLCELLVALPHFNFHNNIIVLIVPLMNDGSKPVSEMCCEAVKKLFKQDKLGQASLGVIKVISGFVKGRNYEVRPEMLKTFLCLRIKEVEVKKDTEDINKPKRFMTFKEKRKTLSRMQRKWKKAEEKLERELREAEASESTEKKLKLHTETLNIVFVTYFRILKKAQKSPLLPAVLEGLAKFAHLINVEFFDDLLVVLHTLIESGELSYQESLHCVQTAFHILSGQGDVLNIDPMKFYTHLYKTLFTLHAGATNDGIEIVLHCLDVMLSKRRKQVSHQRALAFIKRLCTLALQVLPNSSIGLLATTRILMHTFPRTDLLLDNESQGSGVFLPELEEPEYCNAQNTALWELHTLRRHYHPIVRRFAAHLLAGAPSEGSEALKPELSRRSAVELFETYSMAAMTFNPPVESSHSKRKDKFLPGDSFLNEDLNQLIKRYCNEAAPETPLDFAKCLESSSRQYRVNGLS | binds
5 | NRF (protein, UniProt Q8BY02 1-690) MEKILHMAEGIDIGEMPSYDLMLPKPSKGQKRYLSTYDGQNPPKKQAGSKFHVRARFEPVHFVASSSKAERQEDPYGPQTKDVNGRTHFASMPRNFYQDYTQDSFSIQDGNSQYCNSSGFIFTKDQPVATNMYFDSGNPAPSSTSQQANCQPAPEPPPSQMYPESLVAEKQYFIEKLTATIWKNLSNPEMTSGSDKINYTYMLTRCIQACKTNPEYIYAPLKEIPPADIPKNKKLLTDGYACEVRCQNIYLTTGYAGSKNGSRDRATELAVKLLQKRIEVRVVRRKFKHIIGEDLVVCQIGMLSYEFPPALKPPEDLVVLGKDASGQPIFNSSAKHWTNFVITENANDAIGILNNSASFNKMSIEYKYEMMPNRTWRCRVFLQDHCLAEGYGTKKTSKHAAADEALKVLQKTQPTYPSVKSSQCHSGSSPKGSGKKKDIKDLVVYENSSNPVCTLNDTAQFNRMTVEYVYERMTGLRWKCKVILESEVIAEAVGVKKSVKYEAAGEAVKTLKKTQPTVINNLKKGTVEDVISRNEIQGRSAEEAYKQQIKEDNIGNQLLRKMGWTGGGLGKSGEGIREPISVKEQHKREGLGLDVERVNKIAKRDIEQIIRNYARSESHSDLTFSTELTNDERKQIHQIAQKYGLKSKSHGVGHDRYLVVGRKRRKEDLLDQLKQEGQVGHYELVMPQAN | binds
6 | NOL6 (protein, UniProt Q8R5K4 1-1152) MPSAGERPAVKMGPAPAGEQHRRATEDPEVMELAFEGMDKEKAPSRKRARTEPPAEGLLQPVNLSREELYKEPTNEELNRLRETEILFHSTLLRLQVEELLKEVRLSEKKKERIDNFLKEVTKRIQKVPPVPEAELTDQSWLPAGVRVPLHQVPYAVKGSFRFRPPSQITVVGSYLLDTCMRPDINVDVAVTMPREILQDKDGLNQRYFRKRALYLAHLAYHLAQDPLFSSVRFSYMSGCHLKPSLLLRPHGKDERLVTVRLLPCPPLDFFRPCRLLPTKNNVRSAWYRGQSCPDYEPPTPHYNTWILQDVALETHMHLLASVLGSAQGLKDGVALLKVWLRQRELDKGLGGFNGFIISMLVAFLVSKRKIHTTMSGYQVLRSVLQFLATTDLTINGISFSLSSDPSLPTLAEFHQLFAVVFVDPSGRLNLCADVTASTYNQVQYEAELSMALLDSKADDGFQLLLMTPKPMIQAFDHVVHLHPLSRLQASCHQLKLWPELQDNGGDYVSAALGPLTNILVQGLGCRLHLLAHSRPPVPEWSINQDPPKHKDAGTLTLGFLFRPEGLTSVIDLGPEADKPEAADFRQFWGTRSELRRFQDGAIREAVVWEAESLFEKRLIPHQVVTHLLALHADIPDTCIQYVGGFLDALIQNPKEISSTGEEALALAVRCYDDLSRLLWGLEGLPLTVSAVQGAHPVLRYTEVFPPAPVRPAYSFYNRLQELASLLPRPDKPCPAYVEPMTVVCHLEGSGQWPQDAEAVQRVRAAFQLRLAEVLTQEHRLQCCATATHTDVLKDGFVFRIRVAYQREPQILKEVRSPEGMVSLRDTPASLRLERDTKLLPLLTSALHGLQQQYPAYSGVARLAKRWVRAQLLGEGFTDESLDLLAASLFLHPEPFTPPSVPQVGFLRFLYLVSTFDWKNNPLIVNLNGELTAEEQVGIRSSFLAARTQLPVMVIITPQDRRSSVWTQDGPSAQILQQLVSLAAEALPILEKQLMDPRGPGDIRTVFRPPFDMYDVLIHLTPRHIPRHRQAVDPPVASFCRGLLAEPGPSSLMPVLGYDPPQLYLAQLREAFEDLALFFYDQHGGEVIGVLWKPSSFQPQPFKASSIKGRMVVSQGGELVMLPNIEAILEDFAVLGEGLVQAVEARSERWTV | binds

Results are given in words; binding and its absence hold for the method and conditions named. Binding seen in cells or lysates may run through a third protein. A yes stands for co-enrichment or nearness to the bait. Other partners may have been found.
